Measurements taken from article doi:10.1101/2020.07.05.188557.
These are yes or no findings as the source states them, for the method shown. Binding seen in cells or lysates may run through a third protein. A result given as binding can be weak or reduced; the word gives no strength.

Assays:
Experiment in all cases: split reporter
[1] = target: agp1-8TM-Cub-GST (S. cerevisiae)
[2] = target: agp1-12TM-Cub-GST (S. cerevisiae)
[3] = target: ssy1-10TM-Cub-GST (S. cerevisiae)
[4] = target: agp1-2TM-Cub-GST (S. cerevisiae)
[5] = target: agp1-10TM-Cub-GST (S. cerevisiae)
[6] = target: ssy1-8TM-Cub-GST (S. cerevisiae)
[7] = target: ssy1-2TM-Cub-GST (S. cerevisiae)
[8] = target: agp1-4TM-Cub-GST (S. cerevisiae)
[9] = target: ssy1-12TM-Cub-GST (S. cerevisiae)
[10] = target: ssy1-4TM-Cub-GST (S. cerevisiae)
[11] = target: ssy1-6TM-Cub-GST (S. cerevisiae)
[12] = target: agp1-6TM-Cub-GST (S. cerevisiae)

B1: Shr3Δ94-NubA (protein, UniProt Q02774)
chain: MFSYSDFCSIGTAMILSATTFLMGVFFSNMPYDYHLLFNPNSTQEHFDLALRHYQILHETPLPVIVTLCVVAGIGLVGGTIKVFKPNPELQMFEYCSLGLYVLAICVFLTNVKTGIDCSVTENQGLAVIASSNIILLVMFAGVIILQIGLWYSNWDLQKRLKEFYAQEEREAANAGKKTEKVDNAKKNDNKSKGAQKRKNAKK
[1]
  binding: binds
[2]
  binding: binds weakly
[3]
  binding: binds
[4]
  binding: binds
[5]
  binding: binds
[6]
  binding: binds
[7]
  binding: binds
[8]
  binding: binds
[9]
  binding: binds
[10]
  binding: binds
[11]
  binding: binds
[12]
  binding: binds
